Results reported in paper PMC7819943, “Rice protein-binding microarrays: a tool to detect cis-acting elements near promoter regions in rice”.
The list shows a part of the results.

Amino acid sequences for entries named in this document (tags omitted).
UniProt Q0JBA9, entry or part of it: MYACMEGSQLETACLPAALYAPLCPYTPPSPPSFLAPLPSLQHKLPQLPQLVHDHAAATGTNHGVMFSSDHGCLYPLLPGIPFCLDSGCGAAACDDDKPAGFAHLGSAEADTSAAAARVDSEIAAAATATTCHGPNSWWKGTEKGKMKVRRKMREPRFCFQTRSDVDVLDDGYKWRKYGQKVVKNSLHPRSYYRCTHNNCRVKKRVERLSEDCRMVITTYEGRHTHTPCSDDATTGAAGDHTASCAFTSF

What follows are sequences tested against OsWRKY34 (Oryza sativa, UniProt Q0JBA9 1-250) (assay: protein-binding microarray (RPBM); PBS, 2% BSA, 51.3 ng/ul salmon testes DNA, 50 uM zinc acetate, 200 nM TF, 25 C, 1 h; high values mean tight binding). Settings: protein: recombinant; tags: N-terminal polyhistidine and DsRed monomer fusion (pET32a); label: CyDye5-dUTP incorporated in the synthesized complementary strand; 3' TTTTT single-stranded linker to array surface; dsDNA, one strand shown.
Summary of the method: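 Per-feature fluorescence intensity (arbitrary units), read on an Axon 4000B scanner, is the binding signal. Transcription factors carrying an N-terminal polyhistidine tag and DsRed fusion were expressed in E. coli BL21-CodonPlus and purified on Ni–NTA. A custom Agilent array, made double-stranded by primer extension with Cy5-dUTP and blocked with 2% BSA, was incubated with 200 nM protein in PBS, 2% BSA, salmon testes DNA and 50 µM zinc acetate at 25 °C for 1 h and then washed.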

Compared with “GGCACTACACTAAATGTTGTTTTCTTCTCTCTATTTTCTTCGGAGTCACCTAGTGCAG”, “ATCTTACGCTGGACAGCATCCACCAACATCTCTCTCTCTTCGGAGTCACCTAGTGCAG” is lower in binding signal: 13700 fluorescence intensity (a.u.) for the first, 8280 fluorescence intensity (a.u.) for the second.

Compared with “CCGTGTTGTTCATCGTGCACTCGCCTCCGTCGCTTGCGAACGGAGTCACCTAGTGCAG”, “CTTCGCCCACCCGCTTGTCACGCACGAGCCCGGCCAGCGTCGGAGTCACCTAGTGCAG” is lower in binding signal: 9800 fluorescence intensity (a.u.) for the first, 8360 fluorescence intensity (a.u.) for the second.

Going from “GCCTCCGCTTCCGCTCCGCCGCCGCCTGCCTCGCCGCGCCCGGAGTCACCTAGTGCAG” to “ACCACTCCACGCGCCTATATCACCACACGTCACGCTTCCACGGAGTCACCTAGTGCAG”, the binding signal rises from 9800 fluorescence intensity (a.u.) to 16700 fluorescence intensity (a.u.).

Going from “CAAGGGAGGTCGGGGAGGATGATTGGGTTGGGTAGAGCGGCGGAGTCACCTAGTGCAG” to “ACTAATTGTGGCCATGTTCATCGTGCAGTTCCTTGGATCTCGGAGTCACCTAGTGCAG”, the binding signal falls from 12200 fluorescence intensity (a.u.) to 8880 fluorescence intensity (a.u.).

First: AGTGGCATTCACATCCCATTTATACATTTTGTCTCAGAAACGGAGTCACCTAGTGCAG
Second: CCATCCACTTGCAATATCTCTCTTTCTCGCTCGCTCTCGCCGGAGTCACCTAGTGCAG
The binding signal of the first is lower: 8180 fluorescence intensity (a.u.) for the first, 8320 fluorescence intensity (a.u.) for the second.

First: TACACTAGCACACACTACATACAATCTTCTTCTTCTTCTTCGGAGTCACCTAGTGCAG
Second: GGATTTGGCCATTTCTTGCCTCGTGTCGTTGGCAGAGACCCGGAGTCACCTAGTGCAG
The binding signal of the first is higher: 8780 fluorescence intensity (a.u.) for the first, 8060 fluorescence intensity (a.u.) for the second.

Compared with “ATGGTTTCTGTCCGTTTCCGTACCGTTTTCACCCCTAATTCGGAGTCACCTAGTGCAG”, “TAGTCCATTCCGTTTCAAATTATTTGTGGTTCTACATTTTCGGAGTCACCTAGTGCAG” is higher in binding signal: 8310 fluorescence intensity (a.u.) for the first, 11800 fluorescence intensity (a.u.) for the second.

Compared with “TGCCAATTTTGATGGGGCCTTTTTTTTTATTACTATTTCTCGGAGTCACCTAGTGCAG”, “TCTCGTTTCCTTGCACGTAAGCCGCGCCCTTTTGCCTTGCCGGAGTCACCTAGTGCAG” is lower in binding signal: 8920 fluorescence intensity (a.u.) for the first, 8530 fluorescence intensity (a.u.) for the second.

First: TTTCACTGCCATCAACTTCATCACATCGATCTCCTCCTGACGGAGTCACCTAGTGCAG
Second: CCTTTGCTCTTTCCGCTAATAGCGTGTACATCCCTGTTAACGGAGTCACCTAGTGCAG
The binding signal of the first is lower: 8050 fluorescence intensity (a.u.) for the first, 9500 fluorescence intensity (a.u.) for the second.

First: ACCCGTCTTGTTCTCACCGACGACGCGCTGGCATGTATTTCGGAGTCACCTAGTGCAG
Second: ATATGTTTGACCGTTCGTCTTATTCAAAAACTTTTGTGAACGGAGTCACCTAGTGCAG
The binding signal of the first is higher: 9120 fluorescence intensity (a.u.) for the first, 8180 fluorescence intensity (a.u.) for the second.

First: GCACCACCATCCTTCCTAGGAAAACCCCACCCACCCTCACCGGAGTCACCTAGTGCAG
Second: ATATGGACTGTTTGTTTTGTTCCCCTATCTAGAATTATTCCGGAGTCACCTAGTGCAG
The binding signal of the first is higher: 8440 fluorescence intensity (a.u.) for the first, 8420 fluorescence intensity (a.u.) for the second.

Going from “GATTGTTTGCTAGTATCTCTTTCCATGGAGACATAAGAATCGGAGTCACCTAGTGCAG” to “CGCCATCCCAATCCGATCTCCCGCGAGCTCCAGATCCACCCGGAGTCACCTAGTGCAG”, the binding signal rises from 8600 fluorescence intensity (a.u.) to 9180 fluorescence intensity (a.u.).

First: CGACCTCACGCTCCACCTCTACTTCCGGCGCGCCGCGCGGCGGAGTCACCTAGTGCAG
Second: TCTATACCTAGCTATCTTTTACAATTGCTAATTCCACAAGCGGAGTCACCTAGTGCAG
The binding signal of the first is lower: 8600 fluorescence intensity (a.u.) for the first, 8870 fluorescence intensity (a.u.) for the second.

Going from “ATCGAGCTCTCTTACCAACGCCGATCTAAAGCTTCACCTCCGGAGTCACCTAGTGCAG” to “CTCGTCATCACATGGCCGCCGCCGCAACCACCACCGCCGCCGGAGTCACCTAGTGCAG”, the binding signal rises from 8800 fluorescence intensity (a.u.) to 9370 fluorescence intensity (a.u.).

Compared with “CCACCACCGCGCCACCATGGGCGCCGCCACCGCCCAGCCGCGGAGTCACCTAGTGCAG”, “CGCCAACGCCACGCCGAGCCTCGCGCCGCTCTTATATTACCGGAGTCACCTAGTGCAG” is higher in binding signal: 9610 fluorescence intensity (a.u.) for the first, 10400 fluorescence intensity (a.u.) for the second.

Compared with “TTCGCTGCAGTGTCTTTCCTGCCTTGCAATTGCAAATCCTCGGAGTCACCTAGTGCAG”, “CTCTTCTCTCTCCCCTTTTTTGGTTCAAGCTCACCACGCCCGGAGTCACCTAGTGCAG” is higher in binding signal: 8020 fluorescence intensity (a.u.) for the first, 8140 fluorescence intensity (a.u.) for the second.

Going from “TGACACCACTGCACAAGTTTAGGGACCGCCTATGTACTTCCGGAGTCACCTAGTGCAG” to “CGCAACACACGCACTCCAGGTAAACCCTACGACTCCAGCTCGGAGTCACCTAGTGCAG”, the binding signal rises from 8270 fluorescence intensity (a.u.) to 8840 fluorescence intensity (a.u.).

Going from “ACATTATGGCATTCATGTTCACTATTCACATTTTCACATCCGGAGTCACCTAGTGCAG” to “CAATCAACTTCTTCTTTCTTCGTGTTCTTCAGCTCTGCTACGGAGTCACCTAGTGCAG”, the binding signal rises from 9590 fluorescence intensity (a.u.) to 10200 fluorescence intensity (a.u.).

First: CTGCCCACCGCCGCTGCGCCCGCCGCCCACCGCCCGCCGACGGAGTCACCTAGTGCAG
Second: GCTACTATTTTCTTGTTTTTTATGTGTACGTTTCCCGAATCGGAGTCACCTAGTGCAG
The binding signal of the first is lower: 10500 fluorescence intensity (a.u.) for the first, 11100 fluorescence intensity (a.u.) for the second.

First: CATGTCATCCTTCCACCATCGATCTCTCCATCTCTTTCATCGGAGTCACCTAGTGCAG
Second: TTTTTTTTGCTGGAATTCTTGTTGTGGGGTAAGGCGCAAACGGAGTCACCTAGTGCAG
The binding signal of the first is lower: 8430 fluorescence intensity (a.u.) for the first, 11800 fluorescence intensity (a.u.) for the second.

First: AGCGCAACTCGTCGCCGCCGTGCCGTTGCGTTTCTCGTTACGGAGTCACCTAGTGCAG
Second: TTTCGATTGCAATTTCGTTAGTTTCTGTGCCTTTTTGCTCCGGAGTCACCTAGTGCAG
The binding signal of the first is higher: 8510 fluorescence intensity (a.u.) for the first, 8180 fluorescence intensity (a.u.) for the second.
